{"source": "patent US20050004011A1", "about": "“Compositions and methods for treating bacterial infections with protein-dalbavancin complexes” (priority 2002, published 2005)", "system": "N,N′-diacetyl-Lys-D-Ala-D-Ala", "assay": "ITC of binding to tri-peptide, with and without HSA", "conditions": "T 25 ° C., [HSA] 513 μM", "note": "Structures can show the parent of a compound that is named as a salt."}
{"smiles": "CN[C@H](CC(C)C)C(=O)N[C@H]1C(=O)N[C@@H](CC(N)=O)C(=O)N[C@H]2C(=O)N[C@H]3C(=O)N[C@H](C(=O)N[C@H](C(=O)O)c4cc(O)cc(O)c4-c4cc3ccc4O)[C@H](O)c3ccc(c(Cl)c3)Oc3cc2cc(c3O[C@@H]2O[C@H](CO)[C@@H](O)[C@H](O)[C@H]2O[C@H]2C[C@](C)(N)[C@H](O)[C@H](C)O2)Oc2ccc(cc2Cl)[C@H]1O", "note": "[Vancomycin, vancomycin hydrochloride, reference compound]", "values": [{"measurement": "ΔS", "result": "−8.80", "unit": "eu"}]}
